Values from PubChem BioAssay AID1259254 (NCATS, 2017)
The deposit covers about 59,000 reagents; below is a random part of them. Of all reagents, about 1,550 (2.6%) are marked active. 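G2 share is only a proxy for re-replication; each gene was hit by three separate siRNAs, and active genes were retested.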 A number with no mark means an inactive call. Reagents against one gene are numbered here. Further read-outs or replicates are left out here. No sequences are given here. The record does not give: the amount of reagent.

Aim: 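Gene knock-downs that lead to re-replication, shown by excess G2 DNA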 (primary screen)
Cells: human HCT116 colorectal cancer cells
Reagent: single siRNA against human genes
Timing: 3 days
Read-out: 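Imaged Hoechst DNA stain sorts each cell into a cycle phase by DNA amount; per plate, G2 fraction set to 0% for non-targeting and 100% for GMNN siRNA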
Scale: G2 robust z-score: higher = more G2 cells, more excess DNA replication
Hit rule: 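Active siRNAs have a G2 robust z of 5 or more median absolute deviations over the median, which in these data means about 38% or higher of GMNN control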

target,reagent,G2 robust z-score
ICA1L (GeneID 130026),1,-0.769
ICA1L (GeneID 130026),2,1.96
ICA1L (GeneID 130026),3,-0.32
OTULINL (GeneID 54491),1,0.849
OTULINL (GeneID 54491),2,-0.569
OTULINL (GeneID 54491),3,-0.988
DNAAF10 (GeneID 116143),1,-0.00126
DNAAF10 (GeneID 116143),2,-0.671
DNAAF10 (GeneID 116143),3,-0.564
SPON1 (GeneID 10418),1,-1.22
SPON1 (GeneID 10418),2,-0.0352
SPON1 (GeneID 10418),3,-0.448
NBEAL1 (GeneID 65065),1,-0.426
NBEAL1 (GeneID 65065),2,-0.00289
NBEAL1 (GeneID 65065),3,2.61
NBEAL1 (GeneID 65065),4,-1.39
NBEAL1 (GeneID 65065),5,-0.686
NBEAL1 (GeneID 65065),6,-0.812
ASXL2 (GeneID 55252),1,-0.197
ASXL2 (GeneID 55252),2,0.0966
ASXL2 (GeneID 55252),3,1.19
CCDC50 (GeneID 152137),1,0.336
CCDC50 (GeneID 152137),2,1.81
CCDC50 (GeneID 152137),3,3.32
CASP16P (GeneID 197350),1,0.238
CASP16P (GeneID 197350),2,0.129
CASP16P (GeneID 197350),3,-0.333
HES1 (GeneID 3280),1,-0.595
HES1 (GeneID 3280),2,3.85
HES1 (GeneID 3280),3,2.86
USP21 (GeneID 27005),1,-1.49
USP21 (GeneID 27005),2,-1.4
USP21 (GeneID 27005),3,-0.712
SLFN12 (GeneID 55106),1,2.43
SLFN12 (GeneID 55106),2,2.54
SLFN12 (GeneID 55106),3,1.87
ZNF875 (GeneID 284459),1,-0.208
ZNF875 (GeneID 284459),2,0.559
ZNF875 (GeneID 284459),3,-0.948
CDIN1 (GeneID 84529),1,-0.82
CDIN1 (GeneID 84529),2,-0.089
CDIN1 (GeneID 84529),3,-0.0741
SLC4A1 (GeneID 6521),1,1.3
SLC4A1 (GeneID 6521),2,1.42
SLC4A1 (GeneID 6521),3,-0.499
TG (GeneID 7038),1,0.381
TG (GeneID 7038),2,4.25
TG (GeneID 7038),3,-1.35
MS4A1 (GeneID 931),1,0.0764
MS4A1 (GeneID 931),2,-0.93
MS4A1 (GeneID 931),3,3.11
TSPAN32 (GeneID 10077),1,-0.138
TSPAN32 (GeneID 10077),2,-0.255
TSPAN32 (GeneID 10077),3,5.5 (active)
ZCCHC2 (GeneID 54877),1,3.74
ZCCHC2 (GeneID 54877),2,0.987
ZCCHC2 (GeneID 54877),3,0.699
LIPI (GeneID 149998),1,2.24
LIPI (GeneID 149998),2,-1.1
LIPI (GeneID 149998),3,0.0391
TLR4 (GeneID 7099),1,-0.182
TLR4 (GeneID 7099),2,0.195
TLR4 (GeneID 7099),3,2.3
CYP46A1 (GeneID 10858),1,2
CYP46A1 (GeneID 10858),2,3.57
CYP46A1 (GeneID 10858),3,0.634
TTC22 (GeneID 55001),1,-0.106
TTC22 (GeneID 55001),2,-0.615
TTC22 (GeneID 55001),3,1.77

4 entries from above, set out differently:
target | reagent | G2 robust z-score
SLFN12 (GeneID 55106) | 2 | 2.54
SLFN12 (GeneID 55106) | 3 | 1.87
ZNF875 (GeneID 284459) | 1 | -0.208
ZNF875 (GeneID 284459) | 2 | 0.559
